According to PubChem BioAssay AID328 (DTP/NCI, 2004):
The list shows only some results of the screen, not a fair sample: it gathers tests that were run many times, whatever their T/C, doses with no T/C, and many T/C values between a quarter and a half above the control. Further doses and runs are listed elsewhere. T/C is the treated group as % of the vehicle group. Some entries give survivors of the animals treated and no T/C: the source files T/C as zero there, which appears to mark a toxic dose or a test without result, not a measured value. Some doses without a T/C left all or most animals alive at the check, yet need not have been tolerated: survival well below the control is almost never listed, so the zero probably covers shortened survival too. Counts of survivors are from the toxicity check (mostly the fifth day) where no day follows; animals may have died later. Schedule codes are those of the source, taken here to give the interval after Q, in days (D) or hours (H), and the number of doses after X. Some entries were tested several times; their values stand side by side, smallest first. For survival time, this PubChem deposit counts one and a half times the control or more as active, and values a quarter to a half above the control carry no call in these data; other NCI protocols may use other cut-offs. Starred links: 1 amine or outer side, 2 acyl side, 3 side chain; linkers in the order of their positions; H or OH if unused. Positions of bridges follow the written chain, without caps; N, C: chain ends. Non-standard residues stand in square brackets, D forms with d. Residues, ends and D or L forms follow the SMILES beside them. Chains are numbered I, II in the order given. Actinocin(9to1) = Cc1c2oc3c(C)ccc(C(=O)[*:1])c3nc-2c(C(=O)[*:2])c(N)c1=O; NMeV = CN[CH](C(=O)O)C(C)C; Pip = O=C(O)[CH]1CCCCN1; Sar = CNCC(=O)O

Test system: BDF1 mice, P388 leukemia ip, median survival T/C
Assay: NCI In Vivo Anticancer Drug Screen. Data for tumor model P388 Leukemia (intraperitoneal) in B6D2F1 (BDF1) mice
Settings: T/C endpoint: median survival time, higher T/C = longer survival
How it was run: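 Steps: implant the tumour, treat one group with compound and another with vehicle, record survival, then divide treated by control.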

[1] = dose: 100.0 mg/kg/injection, schedule: Q01DX009 (ip), vehicle: saline with Tween-80
[2] = dose: 200.0 mg/kg/injection, schedule: Q01DX009 (ip), vehicle: saline
[3] = dose: 75.0 mg/kg/injection, schedule: Q01DX009 (ip), vehicle: saline with Tween-80
[4] = dose: 150.0 mg/kg/injection, schedule: Q01DX009 (ip), vehicle: saline with Tween-80
[5] = dose: 12.5 mg/kg/injection, schedule: Q01DX009 (ip), vehicle: saline
[6] = dose: 50.0 mg/kg/injection, schedule: Q01DX009 (ip), vehicle: saline
[7] = dose: 50.0 mg/kg/injection, schedule: Q01DX009 (ip), vehicle: Klucel (hydroxypropylcellulose) (HPC)
[8] = dose: 100.0 mg/kg/injection, schedule: Q01DX009 (ip), vehicle: Klucel (hydroxypropylcellulose) (HPC)
[9] = dose: 200.0 mg/kg/injection, schedule: Q01DX009 (ip), vehicle: Klucel (hydroxypropylcellulose) (HPC)
[10] = dose: 400.0 mg/kg/injection, schedule: Q01DX009 (ip), vehicle: Klucel (hydroxypropylcellulose) (HPC)
[11] = dose: 200.0 mg/kg/injection, schedule: Q04DX003 (ip), vehicle: Klucel (hydroxypropylcellulose) (HPC)
[12] = dose: 200.0 mg/kg/injection, schedule: Q01DX009 (ip), vehicle: saline with Tween-80

## Cc1c(CNc2ccc(C(=O)NC(CC(=O)O)CC(=O)O)cc2)ccc2nc(N)nc(N)c12
dose: 3.0 mg/kg/injection, schedule: Q01DX009 (ip), vehicle: saline
  survivor count: 5 of 6
dose: 4.5 mg/kg/injection, schedule: Q01DX009 (ip), vehicle: saline
  survivor count: 5 of 6
dose: 6.0 mg/kg/injection, schedule: Q01DX009 (ip), vehicle: saline
  survivor count: 5 of 6

## CCCCC(CC)C1NCCO1 (centres undefined)
[1]
  survivor count: 6 of 6

## COc1cc(NCCCCC(C)N)c2nccc(C)c2c1 (centres undefined)
dose: 100.0 mg/kg/injection, schedule: Q01DX009 (ip), vehicle: saline
  survivor count: 4 of 6
[2]
  survivor count: 0 of 6

## CCn1c(O)c(N=NC(=S)NC)c2ccccc21
[3]
  survivor count: 5 of 6
[4]
  survivor count: 5 of 6

## CCCCCCCCCCCC[N+](CC)(CC)CC(=O)O
[5]
  T/C: 126 % of control
dose: 25.0 mg/kg/injection, schedule: Q01DX009 (ip), vehicle: saline
  T/C: 126 % of control
[6]
  T/C: 142 % of control
dose: 75.0 mg/kg/injection, schedule: Q01DX009 (ip), vehicle: saline
  survivor count: 3 of 6

## CC(=O)O[C@H]1CC[C@H]2[C@@H]3CC[C@H]4CC=C(C#N)C[C@]4(C)[C@H]3CC[C@]12C
dose: 3.0 mg/kg/injection, schedule: Q01DX009 (ip), vehicle: Klucel (hydroxypropylcellulose) (HPC)
  survivor count: 6 of 6
dose: 12.0 mg/kg/injection, schedule: Q01DX009 (ip), vehicle: Klucel (hydroxypropylcellulose) (HPC)
  survivor count: 6 of 6
[7]
  survivor count: 5 of 6
[8]
  survivor count: 6 of 6
[9]
  survivor count: 6 of 6
[10]
  survivor count: 5 of 6 and 6 of 6

## O=C1c2c(O)ccc(O)c2C(=O)c2c(NCCNCCO)ccc(NCCNCCO)c21
dose: 6.25 mg/kg/injection, schedule: Q01DX009 (ip), vehicle: water
  survivor count: 6 of 6
dose: 12.5 mg/kg/injection, schedule: Q01DX009 (ip), vehicle: water
  survivor count: 3 of 6

## C1CCNCC1.O=C([CH-]C(=O)C(F)(F)F)c1cccs1.O=C([CH-]C(=O)C(F)(F)F)c1cccs1.O=C([CH-]C(=O)C(F)(F)F)c1cccs1.O=C([CH-]C(=O)C(F)(F)F)c1cccs1.[Eu+3]
[6]
  T/C: 134 % of control
[2]
  survivor count: 4 of 6

## CCSC1=C(SCC)C1SCC
dose: 100.0 mg/kg/injection, schedule: Q04DX003 (ip), vehicle: Klucel (hydroxypropylcellulose) (HPC)
  T/C: 126 % of control
[11]
  survivor count: 2 of 6
dose: 400.0 mg/kg/injection, schedule: Q04DX003 (ip), vehicle: Klucel (hydroxypropylcellulose) (HPC)
  survivor count: 0 of 6

## C[N+](C)(C)N=C1CCC2(CC1)c1ccccc1-c1ccccc12
dose: 80.0 mg/kg/injection, schedule: Q01DX009 (ip), vehicle: saline
  survivor count: 1 of 6
dose: 82.5 mg/kg/injection, schedule: Q04DX003 (ip), vehicle: saline
  survivor count: 3 of 6
dose: 165.0 mg/kg/injection, schedule: Q04DX003 (ip), vehicle: saline
  survivor count: 0 of 6

## N[C@H](C(=O)O)[C@@H]1CC(Cl)=NO1
dose: 6.25 mg/kg/injection, schedule: Q04DX003 (ip), vehicle: saline
  T/C: 127 % of control
[5]
  survivor count: 8 of 8
dose: 32.4 mg/kg/injection, schedule: Q04DX003 (ip), vehicle: saline
  T/C: 128 % of control
dose: 36.0 mg/kg/injection, schedule: Q04DX003 (ip), vehicle: saline
  T/C: 131 % of control
dose: 54.0 mg/kg/injection, schedule: Q04DX003 (ip), vehicle: saline
  T/C: 134 % of control
dose: 60.0 mg/kg/injection, schedule: Q04DX003 (ip), vehicle: saline
  T/C: 139 % of control
dose: 90.0 mg/kg/injection, schedule: Q04DX003 (ip), vehicle: saline
  T/C: 145 % of control
dose: 100.0 mg/kg/injection, schedule: Q04DX003 (ip), vehicle: saline
  T/C: 149 % of control
dose: 100.0 mg/kg/injection, schedule: Q04DX003 (ip), vehicle: water
  T/C: 147 % of control
dose: 150.0 mg/kg/injection, schedule: Q04DX003 (ip), vehicle: saline
  T/C: 148 % of control

## Cc1c2oc3c(C)ccc(C(=O)NC4C(=O)NC(C(C)C)C(=O)N5CCCCC5C(=O)N(C)CC(=O)N(C)C(C(C)C)C(=O)OC4C)c3nc-2c(C(=O)NC2C(=O)NC(C(C)C)C(=O)N3CCCCC3C(=O)N(C)CC(=O)N(C)C(C(C)C)C(=O)OC2C)c(N)c1=O (centres undefined) (I: TV[Pip][Sar][NMeV] / II: TV[Pip][Sar][NMeV]; ester I:1-I:C, II:1-II:C; linker I:N-II:N via Actinocin(9to1); configuration not given here)
dose: 0.15 mg/kg/injection, schedule: Q01DX010 (ip), vehicle: other
  T/C: 140 % of control
dose: 0.3 mg/kg/injection, schedule: Q01DX010 (ip), vehicle: other
  T/C: 140 % of control
dose: 0.5 mg/kg/injection, schedule: Q01DX009 (ip), vehicle: saline + alcohol
  T/C: 135 % of control
dose: 1.0 mg/kg/injection, schedule: Q01DX009 (ip), vehicle: saline + alcohol
  T/C: 142 % of control
dose: 1.5 mg/kg/injection, schedule: Q04DX003 (ip), vehicle: saline + alcohol
  T/C: 128 % of control
dose: 3.0 mg/kg/injection, schedule: Q04DX003 (ip), vehicle: saline + alcohol
  T/C: 144 % of control

## Cc1ccc(/C=C2\CC(C)(C)c3ccccc3C2=O)cc1
[9]
  survivor count: 6 of 6

## C=C(CCC(C(=O)O)C1CCC2(C)C3=C(CCC12C)C1(C)CCC(O)C(C)(C)C1CC3)C(C)C (centres undefined)
dose: 50.0 mg/kg/injection, schedule: Q01DX009 (sc), vehicle: steroid suspending solution
  survivor count: 6 of 6
dose: 200.0 mg/kg/injection, schedule: Q01DX009 (ip), vehicle: steroid suspending solution
  survivor count: 5 of 6

## O=c1[nH]c(Cl)ncc1F
[3]
  T/C: 133 % of control
[4]
  T/C: 133 % of control
dose: 300.0 mg/kg/injection, schedule: Q01DX009 (ip), vehicle: saline with Tween-80
  survivor count: 4 of 6

## CCCCCCC[CH2][Sn](=[O])[CH2]CCCCCCC
[7]
  survivor count: 3 of 6
dose: 50.0 mg/kg/injection, schedule: Q04DX003 (ip), vehicle: Klucel (hydroxypropylcellulose) (HPC)
  T/C: 136 % of control
dose: 75.0 mg/kg/injection, schedule: Q04DX003 (ip), vehicle: other
  survivor count: 6 of 6
[8]
  survivor count: 1 of 6
[11]
  survivor count: 6 of 6

## O=S(=O)(Cc1ccc(Cl)cc1)c1nc2ccccc2s1
dose: 200.0 mg/kg/injection, schedule: Q01DX005 (ip), vehicle: saline with Tween-80
  survivor count: 3 of 5

## CC(C)c1nsc(N)c1C(N)=O
[12]
  survivor count: 5 of 6

## CCCNCCC(O)c1cc(C(F)(F)F)nc2c(C(F)(F)F)cccc12 (centres undefined)
[1]
  T/C: 129 % of control
[12]
  survivor count: 0 of 6

## C=C(C)C(=O)OC1C2C(=C)C(=O)OC2CC(C)C2OC2C(=O)C(C)(O)C1OC(=O)C(=C)C (centres undefined)
dose: 100.0 mg/kg/injection, schedule: Q04DX002 (ip), vehicle: Klucel (hydroxypropylcellulose) (HPC)
  survivor count: 2 of 6
dose: 200.0 mg/kg/injection, schedule: Q04DX002 (ip), vehicle: Klucel (hydroxypropylcellulose) (HPC)
  survivor count: 0 of 6
dose: 400.0 mg/kg/injection, schedule: Q04DX002 (ip), vehicle: Klucel (hydroxypropylcellulose) (HPC)
  survivor count: 0 of 6

## O/C(=C/C(=S)S)c1cccs1
dose: 12.5 mg/kg/injection, schedule: Q04DX003 (ip), vehicle: water
  survivor count: 4 of 6
dose: 25.0 mg/kg/injection, schedule: Q04DX003 (ip), vehicle: water
  survivor count: 1 of 6
dose: 50.0 mg/kg/injection, schedule: Q04DX003 (ip), vehicle: water
  survivor count: 0 of 6

## CCCCCCCCCCCCCCCCOc1ccccn1
[8]
  survivor count: 6 of 6
[9]
  survivor count: 6 of 6
[10]
  survivor count: 5 of 6

## CC1=NN(c2ccccc2)C(=O)C1C(=S)SC1CC(=O)OC1=O (centres undefined)
[12]
  survivor count: 3 of 6
